Hit rate of the full screen: of about 52,000 sequences, about 210 (0.4%) were called active.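 Rule for the calls: active = gene whose silencing raises cell survival under the drug, median off-target-corrected z-score across its silencing RNAs 2 or more; inactive = the rest.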 The list shows a part of the results.
Assay: Resistance to Poly (ADP-Ribose) Polymerase inhibitor: Gene Identification via Genome-wide siRNA Screen
Conditions: mouse BRCA2 R2336H ES cells, olaparib, CellTiter-Glo viability; stronger effect = higher value
How it was run: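 Genome-wide siRNA screen (3 siRNAs/gene, 20 nM) in mouse ES cells carrying hypomorphic BRCA2 R2336H; olaparib 500 nM added 48 h post-transfection, CellTiter-Glo viability 72 h later. Normalized to plate-median negative control; MAD z-scores, gene median, seed-adjusted.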
For “GGGUCUGAUUGUCAAGGGATT against 1700020C08Rik”, the z-score was inactive: -0.0449. In the case of UUAUGACACGCUCAAACUATT against AY238603, the z-score is reported as inactive: 1.81. For “GCAGAUGUGGCAUCUUCCATT against 6430596G11Rik”, the z-score was inactive: -0.159. In the case of GGUACUACUUUCUAAUUCATT against Vcam1, the z-score is reported as inactive: 0.156. In the case of GCUAAGUACGUUCAUGGCATT against Gba, the z-score is reported as inactive: 3.18. In the case of GGUCAACUAGCAGAAACCATT against Mass1, the z-score is reported as inactive: 1.6. With “GGACUUUCUGAGUAAGAAUTT against 2810002N01Rik” the z-score was inactive: 0.427. In the case of CCUAUCCUACUGUCAAGAUTT against Nfkb2, the z-score is reported as inactive: 1.76. In the case of CCGAUGUGCUCACUAUCACTT against Mrps35, the z-score is reported as inactive: 0.734. For “GGACAGUUCAGAACAAAUUTT against 9430093N24Rik”, the z-score was inactive: -1.45. For GGAAUUUUCUCAUGAUCUUTT against Krtap3-3, the z-score was inactive: -0.472. With GCCCUAGGUGUAAUGAUAGTT against Amd1 the z-score was inactive: -1.72. For GGGUUCCAGAUACUUUCUUTT against Zfp261, the z-score was inactive: -0.268. With GGUAAAGACGUAAACUUACTT against Rhpn2 the z-score was inactive: 1.35. For “GGUUUCUGCCCAGAGUCUATT against 2010106E10Rik”, the z-score was inactive: -1.47. For GGUAUCACUACUUUUUAGUTT against Prnpip1, the z-score was inactive: 0.665. For GGUACUGUUGCGCUUUGCUTT against Narfl, the z-score was inactive: -1.5. For CGACUUGUCAUGAACCAAATT against Atrx, the z-score was inactive: -2.25. With GGCAUUCUCUAUGAAGCUGTT against Vrk3 the z-score was inactive: 0.572. With GGUUGAGAAACCAAUUUCATT against Retnlb the z-score was inactive: 0.21. With GCUGAUCGUGCAGAUUUUATT against Chn2 the z-score was inactive: 0.488. With GGGCGACCUUUGAUUGACATT against Etv5 the z-score was inactive: 2.34. For GCUAAUACGAUCACUAGCUTT against Gdf6, the z-score was inactive: 0.395. With GGUCUAUCCUACCUCAAAGTT against Prlpc3 the z-score was inactive: 1.59. With GGUAGACCUUUUGUCACGGTT against Lass2 the z-score was inactive: -1.29. For GCUUUACUCCAGAUGGAUCTT against Chaf1b, the z-score was inactive: -1.68. In the case of “CGCCUUAUAAUAUACCUAUTT against 9030425E11Rik”, the z-score is reported as inactive: 1.8. With GGUCAUUUGAUCUUCUGGUTT against Cacybp the z-score was inactive: -0.153. For GGGUGUUCCUUAUACAGUUTT against Zfp524, the z-score was inactive: -1.3. For GGGUGAUGAUCUUCAGCAATT against Txnrd3, the z-score was inactive: -0.332. With CCUAAAGUCUGAAUGUUCCTT against Il3 the z-score was inactive: 0.306. In the case of CGAGAGAUGUAACAAAAAGTT against Sele, the z-score is reported as inactive: 1.14. In the case of GGUUUUUGAACUGGUAAGATT against Olfr725, the z-score is reported as inactive: -0.788. With GGAAAAACAAGCAUUAGGUTT against BC052066 the z-score was inactive: -0.0768. In the case of GGACUCUCAGAAGAAUGAUTT against Hmmr, the z-score is reported as inactive: 0.644. For GCUGAAGCAUGCCCGUAAUTT against Racgap1, the z-score was inactive: -0.414. With “GGGACUCAAAAGUCAAGUGTT against D5Ertd577e” the z-score was inactive: 0.686. In the case of GUGACUCCCAAACUCCUGATT against Olfr1180, the z-score is reported as inactive: -2.02. In the case of “GGCUUCUGGUACAUUAUUGTT against 9230112J07Rik”, the z-score is reported as inactive: -1.17. In the case of “GGGAAGGAUGACCUAACAATT against 2610029K21Rik”, the z-score is reported as inactive: -1.56. In the case of “GGCUGGCUUGCUUGUAAUATT against 1700001C02Rik”, the z-score is reported as inactive: -0.371. In the case of CCAAAGUGGACACAAUUGCTT against Ephb6, the z-score is reported as inactive: 0.262. With GGCCCACAAGUACCGUUACTT against Gcat the z-score was inactive: -0.0833. For “CGAGUCUAUAAACCUCAAATT against 2310002A05Rik”, the z-score was inactive: 0.482. In the case of “GGUAAGCUCCAAUUAUGCCTT against A130030D10Rik”, the z-score is reported as inactive: 0.611. For GGAGAAGUCAUGAAACAAATT against Park2, the z-score was inactive: 0.943. In the case of GCUGUUAACUUGGAAGACUTT against Fut11, the z-score is reported as inactive: 0.967. For GGAGAAGAAAGUGUUGAAATT against Klhdc4, the z-score was inactive: 0.61. In the case of CCUGAUCACCAGAUGCUGATT against Sprr1a, the z-score is reported as inactive: 0.745. In the case of “GGAAAUUGGGACUCACAUCTT against 2410002O22Rik”, the z-score is reported as inactive: -0.618. With GCUUCCUACGGUGUGUCAATT against Hnrpu the z-score was inactive: -0.423. In the case of “GCGUGGAAAUCAACUUACATT against 4933417A14Rik”, the z-score is reported as inactive: -0.661. With GGAUGUUGAUCUGACUCACTT against Ppp1r7 the z-score was inactive: -1.4. For AUAUAUGCUUACCUUGCUATT against Ubl5, the z-score was inactive: 0.0811. With CCAGUCCUACUUAGCAAAGTT against BC046404 the z-score was inactive: 1.34. For GCAGUCUUAAUUCAUGGUGTT against Slco6c1, the z-score was inactive: -0.609. In the case of GGCAGCCAAGAAAAUGUUATT against Gstt2, the z-score is reported as inactive: -0.789. For GCGGAAAAGGGAGUUGCCUTT against Hand1, the z-score was inactive: 1. For GCUCUAUGUCAGAAACCAGTT against C4bp, the z-score was inactive: -0.818. With CCUUUGGUGAAGCCUGGAUTT against Kiss1 the z-score was inactive: 0.0368. With GCCAGUCUGGAGUUGCUUUTT against Timm23 the z-score was inactive: -2.4. With GCUUUGUAACCGUCCUCCATT against Ftl1 the z-score was inactive: -0.694. In the case of GCUACAGUCUCUUUUAGCATT against Dnclic1, the z-score is reported as inactive: 0.608. With GCCCGACAUAGAAUUCACCTT against Ncor2 the z-score was inactive: 1.23. For GGAAACAAGGAAGCAAUUATT against Psmd1, the z-score was inactive: -3.7. For GGCAAUGUAUUAAUUACAGTT against Otc, the z-score was inactive: 0.415. For GGUAGCUCUGAGACAAUUCTT against Pkhd1l1, the z-score was inactive: -0.669. In the case of CCUGAUGUUUACUAUAAACTT against Atp6v1g3, the z-score is reported as inactive: 0.819. For CGGAUACAGGUUCGGGUAATT against BC030440, the z-score was inactive: -0.942. In the case of “GGCUUGAUGAAUAUUCCAUTT against 2310021H06Rik”, the z-score is reported as inactive: -1.23. For “GGACGAGGAAAAGUCAUCATT against 4930579C12Rik”, the z-score was inactive: -0.848. For “GAACGACAACCCGAUAAUGTT against 2210019E14Rik”, the z-score was inactive: 0.943. With GGGCUUCCCUUACAAAAGGTT against Padi3 the z-score was inactive: 0.789. In the case of GGACACAGGGUCUCUUACATT against Msrb, the z-score is reported as inactive: 0.871. For GGCCAGUUCCUUCUAGACUTT against Abhd1, the z-score was inactive: -0.224. For GGCAUUGAAGCAUCUGUUCTT against Ly78, the z-score was inactive: -0.167. In the case of GGAACCACUGCUUUCAAAATT against Cd36, the z-score is reported as inactive: -0.0235. In the case of GGAGCCACUGGAAAAUUUATT against AI507211, the z-score is reported as inactive: 0.177. In the case of GGCACAGAUACAUCAAAUATT against Spag9, the z-score is reported as inactive: -0.685. In the case of “GGUACCAUGAAGGAUUUAUTT against 6330415F13Rik”, the z-score is reported as inactive: -0.515. With GGACUUGGAAAAUAAGGAATT against Usp38 the z-score was inactive: -1.16. In the case of “GGGAUGCAUUAUUAUUUACTT against 4632417D23”, the z-score is reported as inactive: 0.676. In the case of GGGAGAGGAAGAAAAUAAATT against AU022870, the z-score is reported as inactive: -0.995. For GGACUUUAAUCACAGACAATT against Fem1b, the z-score was inactive: -0.572. With GCUAAGUCCCAGCUAAGUUTT against D4Ertd22e the z-score was inactive: -0.958. For GCCAAACACUUUAUGCGACTT against Ndst4, the z-score was inactive: -0.165. For GGCGCAAGUUUGAUUUUGATT against Perq1, the z-score was inactive: 0.384. In the case of GGACACUUUCAGACCUUAGTT against Ankrd27, the z-score is reported as inactive: -2.02. For CCAGUCAACAAGAAUCAGATT against Rptn, the z-score was inactive: -0.569. In the case of GGAUCCUGUCCACAAGCACTT against Astn1, the z-score is reported as inactive: 0.58. With GGAGACACAAAAGAAGAUATT against Sec14l4 the z-score was inactive: -0.672. For “CCCUGAUUGCAUCCUGUUATT against A430093F15Rik”, the z-score was inactive: -0.263. With GCAGUAAAUGUCCCAUCCGTT against Caskin1 the z-score was inactive: 1.06. In the case of GGGAAAUCAAGGAACUUAATT against Lrrfip1, the z-score is reported as inactive: -1.98. In the case of GGAUGCAUCUAGCUUCACATT against BC016548, the z-score is reported as inactive: -0.0982. With GGACAGAUACUUUUGAUGATT against Zfp386 the z-score was inactive: 0.423. In the case of GGCUUUCACCUUAAUUGAUTT against Fntb, the z-score is reported as inactive: 0.0877. For GGUGAAGAAGAUGUGGACUTT against Pthr2, the z-score was inactive: 1.02. For GGAACUUGACAAAGUCUACTT against Panx1, the z-score was inactive: -0.0295. In the case of “GGUUGUUUUUUGAUACUGATT against 4732496O08Rik”, the z-score is reported as inactive: -1.02. In the case of GCCAUUUGUUUAUGGAGGCTT against Spint2, the z-score is reported as inactive: -0.243. For CGGGUCGUCUCCUUACACATT against Prdm8, the z-score was inactive: 0.964. In the case of “GGCUUUAGCAAUGGAAAAUTT against 9130019P20Rik”, the z-score is reported as inactive: -0.235. With GGCAAUGAGAUCAGUCCACTT against Gzmc the z-score was inactive: -0.078.

From PubChem BioAssay AID1347423 (Functional Genomics Laboratory (NCATS/FGL), 2020)
